Source: PubChem BioAssay AID1224830 (NIAID, 2016)

Test: 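Host factors that control LPS-induced TNF expression in human macrophages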 (primary screen)
System: human THP-1 monocytic leukaemia cells, TNF dual-luciferase reporter clone, PMA-differentiated to macrophage-like cells
Knock-down reagent: siRNA pool against human genes, 50 nM
Duration: LPS for 4 h, given about 3 days after siRNA transfection
Challenge: bacterial LPS (TLR4 ligand), 10 ng/ml
Detection: 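TNF firefly reporter luminescence divided by renilla, normalised to the plate median, then turned into a robust z-score for each replicate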
Reading the numbers: TNF reporter robust z-score: higher = stronger TNF reporter response to LPS
Hit rule: 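a well is active when its z-score exceeds 2.8 or falls below -1.5; control wells carry no call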
The whole screen tested about 18,000 reagents; this is a random part of them. Of all reagents, about 2,900 (16%) were called active. 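Calls are made per well; low scores hint the gene aids the LPS response, high scores that it dampens it.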 Entries without a mark were called inactive. Repeated entries: four replicate wells of each siRNA pool. No sequences are given here.

| gene | PubChem SID | TNF reporter robust z-score |
| --- | --- | --- |
| FCGR2A | SID315448652 | -0.22 |
| FCGR2A | SID315448652 | 2.16 |
| FCGR2A | SID315448652 | 0.91 |
| FCGR2A | SID315448652 | 0.55 |
| RPUSD1 | SID315461170 | 2.71 |
| RPUSD1 | SID315461170 | 1.81 |
| RPUSD1 | SID315461170 | 0.73 |
| RPUSD1 | SID315461170 | 1.41 |
| ACSS2 | SID315457940 | 0.45 |
| ACSS2 | SID315457940 | 0.18 |
| ACSS2 | SID315457940 | 0.23 |
| ACSS2 | SID315457940 | 0.4 |
| NRIP1 | SID315452428 | 0.24 |
| NRIP1 | SID315452428 | -0.17 |
| NRIP1 | SID315452428 | 0.37 |
| NRIP1 | SID315452428 | 0.05 |
| SMIM8 | SID315458297 | 0.77 |
| SMIM8 | SID315458297 | 1.5 |
| SMIM8 | SID315458297 | -0.95 |
| SMIM8 | SID315458297 | 0.06 |
| PRSS37 | SID315462006 | -1.36 |
| PRSS37 | SID315462006 | -1.05 |
| PRSS37 | SID315462006 | -0.29 |
| PRSS37 | SID315462006 | -0.61 |
| ARHGAP17 | SID315457417 | -0.83 |
| ARHGAP17 | SID315457417 | -0.1 |
| ARHGAP17 | SID315457417 | -0.5 |
| RNF214 | SID315463551 | -0.91 |
| RNF214 | SID315463551 | -1.33 |
| RNF214 | SID315463551 | -1.93 (active) |
| RNF214 | SID315463551 | -2.06 (active) |
| NPC1 | SID315450290 | -0.91 |
| NPC1 | SID315450290 | -0.7 |
| NPC1 | SID315450290 | -0.87 |
| NPC1 | SID315450290 | -0.78 |
| NPC2 | SID315454206 | -0.43 |
| NPC2 | SID315454206 | 0.71 |
| NPC2 | SID315454206 | 0.07 |
| NPC2 | SID315454206 | -0.14 |
| SLC29A2 | SID315449249 | -0.86 |
| SLC29A2 | SID315449249 | 0.47 |
| SLC29A2 | SID315449249 | -0.14 |
| SLC29A2 | SID315449249 | -0.33 |
| IHH | SID315449447 | 0.61 |
| IHH | SID315449447 | 0.77 |
| IHH | SID315449447 | 0.13 |
| IHH | SID315449447 | 0.57 |
| KRT86 | SID315449714 | -0.48 |
| KRT86 | SID315449714 | -0.81 |
| KRT86 | SID315449714 | -0.65 |
| KRT86 | SID315449714 | -0.32 |
| VN1R4 | SID315463933 | 0.43 |
| VN1R4 | SID315463933 | -0.59 |
| VN1R4 | SID315463933 | 0.33 |
| VN1R4 | SID315463933 | 0.14 |
| ZSWIM4 | SID315459098 | -0.72 |
| ZSWIM4 | SID315459098 | -0.47 |
| ZSWIM4 | SID315459098 | -0.86 |
| ZSWIM4 | SID315459098 | 0.66 |
| TAAR5 | SID315452991 | -0.68 |
| TAAR5 | SID315452991 | -0.46 |
| TAAR5 | SID315452991 | -0.29 |
| TAAR5 | SID315452991 | -0.04 |
| POLR2E | SID315450692 | 2.79 |
| POLR2E | SID315450692 | 3.17 (active) |
| POLR2E | SID315450692 | 0.57 |
| POLR2E | SID315450692 | 3.72 (active) |
| CNOT8 | SID315453208 | 0.34 |
| CNOT8 | SID315453208 | 0.54 |
| CNOT8 | SID315453208 | 0.68 |
| CNOT8 | SID315453208 | 0.16 |
| TRIT1 | SID315457169 | 0.18 |
| TRIT1 | SID315457169 | -0.25 |
| TRIT1 | SID315457169 | 0.05 |
| TRIT1 | SID315457169 | 0.03 |
| C21orf91 | SID315456972 | 0.27 |
| C21orf91 | SID315456972 | -0.17 |
| C21orf91 | SID315456972 | 1.26 |
| C21orf91 | SID315456972 | 0.25 |
| ECM2 | SID315448398 | 0.17 |
| ECM2 | SID315448398 | 0.47 |
| ECM2 | SID315448398 | 0.34 |
| ECM2 | SID315448398 | -0.78 |
| DEFB112 | SID315463377 | 1.41 |
| DEFB112 | SID315463377 | -0.82 |
| DEFB112 | SID315463377 | -0.7 |
| DEFB112 | SID315463377 | -0.56 |
| P4HA2 | SID315452954 | 0.46 |
| P4HA2 | SID315452954 | 1.01 |
| P4HA2 | SID315452954 | 1.11 |
| P4HA2 | SID315452954 | 0.08 |
| TATDN2 | SID315453575 | -0.4 |
| TATDN2 | SID315453575 | 0.58 |
| TATDN2 | SID315453575 | 0.71 |
| TATDN2 | SID315453575 | 2.06 |
| ISCA2 | SID315461567 | -0.75 |
| ISCA2 | SID315461567 | 0.21 |
| ISCA2 | SID315461567 | -0.61 |
| ISCA2 | SID315461567 | -0.94 |
| TBPL2 | SID315464434 | -0.95 |
| TBPL2 | SID315464434 | -1.51 (active) |
| TBPL2 | SID315464434 | -1.39 |
| TBPL2 | SID315464434 | -0.04 |
| KIRREL2 | SID315460167 | -0.45 |
| KIRREL2 | SID315460167 | -1.27 |
| KIRREL2 | SID315460167 | -1.6 (active) |
| KIRREL2 | SID315460167 | -0.74 |
| WFDC2 | SID315454063 | 0.39 |
| WFDC2 | SID315454063 | 0.14 |
| WFDC2 | SID315454063 | -1.25 |
| WFDC2 | SID315454063 | -0.38 |
